These are yes or no findings as the source states them, for the method shown. In cells and extracts the contact can be indirect. Some binding calls cover weakened binding; strength is not graded here.

Sequences of proteins named here, by UniProt entry; tags and fusion partners are left off. Residues count along the entry.
UniProt P08581, residues 25-1390: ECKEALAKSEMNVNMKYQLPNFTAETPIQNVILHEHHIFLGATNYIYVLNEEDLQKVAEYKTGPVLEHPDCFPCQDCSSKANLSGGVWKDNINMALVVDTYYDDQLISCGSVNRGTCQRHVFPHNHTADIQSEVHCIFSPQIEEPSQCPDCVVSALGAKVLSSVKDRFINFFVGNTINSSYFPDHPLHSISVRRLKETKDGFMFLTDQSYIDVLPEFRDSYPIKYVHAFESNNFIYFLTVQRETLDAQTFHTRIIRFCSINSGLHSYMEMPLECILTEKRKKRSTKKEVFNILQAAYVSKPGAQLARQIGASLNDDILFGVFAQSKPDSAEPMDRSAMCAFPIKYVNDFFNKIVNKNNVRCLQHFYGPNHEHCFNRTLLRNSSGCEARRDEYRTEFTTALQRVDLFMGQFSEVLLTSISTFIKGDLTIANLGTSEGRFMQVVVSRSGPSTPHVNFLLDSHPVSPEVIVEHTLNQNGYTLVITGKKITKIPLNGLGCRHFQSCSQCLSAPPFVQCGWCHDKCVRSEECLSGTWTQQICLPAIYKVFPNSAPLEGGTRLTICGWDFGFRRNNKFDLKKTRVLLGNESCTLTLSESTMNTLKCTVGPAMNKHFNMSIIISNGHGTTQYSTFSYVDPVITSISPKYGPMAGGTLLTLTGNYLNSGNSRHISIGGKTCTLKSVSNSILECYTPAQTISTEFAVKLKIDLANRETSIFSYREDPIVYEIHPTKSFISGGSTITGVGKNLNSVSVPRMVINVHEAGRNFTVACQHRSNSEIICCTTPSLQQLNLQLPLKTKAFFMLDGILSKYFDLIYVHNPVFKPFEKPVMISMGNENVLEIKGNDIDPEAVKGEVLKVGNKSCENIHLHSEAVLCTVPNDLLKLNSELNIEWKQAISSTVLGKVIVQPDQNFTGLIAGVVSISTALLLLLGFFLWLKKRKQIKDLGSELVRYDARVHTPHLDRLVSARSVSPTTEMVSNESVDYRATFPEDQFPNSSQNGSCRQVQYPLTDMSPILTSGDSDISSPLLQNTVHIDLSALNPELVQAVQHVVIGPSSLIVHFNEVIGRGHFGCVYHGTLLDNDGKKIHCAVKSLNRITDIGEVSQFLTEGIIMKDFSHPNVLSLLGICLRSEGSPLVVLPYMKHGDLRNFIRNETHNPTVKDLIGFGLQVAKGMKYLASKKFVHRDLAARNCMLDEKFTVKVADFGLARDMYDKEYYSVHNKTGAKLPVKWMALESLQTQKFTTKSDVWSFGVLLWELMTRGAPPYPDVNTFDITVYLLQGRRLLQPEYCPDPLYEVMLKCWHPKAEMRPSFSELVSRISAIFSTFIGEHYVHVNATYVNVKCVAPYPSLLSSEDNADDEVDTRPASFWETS

For the experiment, the target named is endogenous c-MET (cellular mesenchymal-epidermal transition receptor) immunoprecipitated from 293T cells (human (endogenous in 293T)) (UniProt P08581). The experiment in a line: pull-down.

In the case of “Flag-tagged HGF WT (hepatocyte growth factor), in-vitro translated (from UniProt P14210-1 1-728) (ligand)”, the binding result is recorded as “binds”.
